The list shows a part of the results, in another mix than the full data.
These targets were tested with COC(=O)C#Cc1ccccc1 [methyl 3-phenylpropiolate] (assay: log2 ratio of iodoacetamide-alkyne labeling of the cysteine site, DMSO over compound (competition); higher = stronger covalent engagement of the cysteine by the compound, active = 1 or more). Conditions: 500 µM; treatment time 1 h; system: HEK293T cell lysate.
Outline: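 HEK293T lysate (2 mg/mL) was incubated with electrophile (500 µM) or vehicle for 1 h at ambient temperature and then with iodoacetamide alkyne for 1 h. Labelled proteins were clicked to sCIP-TMT reagents, pooled, digested, enriched on streptavidin and measured by Orbitrap Eclipse LC-MS/MS with FAIMS, with FragPipe quantification. The per-cysteine log2 competition ratio is mean control-channel reporter intensity over mean compound-channel reporter intensity. Across three replicates with duplicate channels, cysteines quantified in only one replicate were excluded.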

Amino acid sequences for entries named in this document (tags omitted). A change or cut given only in a name is not applied to a line headed by its entry.
UniProt P04350, whole entry: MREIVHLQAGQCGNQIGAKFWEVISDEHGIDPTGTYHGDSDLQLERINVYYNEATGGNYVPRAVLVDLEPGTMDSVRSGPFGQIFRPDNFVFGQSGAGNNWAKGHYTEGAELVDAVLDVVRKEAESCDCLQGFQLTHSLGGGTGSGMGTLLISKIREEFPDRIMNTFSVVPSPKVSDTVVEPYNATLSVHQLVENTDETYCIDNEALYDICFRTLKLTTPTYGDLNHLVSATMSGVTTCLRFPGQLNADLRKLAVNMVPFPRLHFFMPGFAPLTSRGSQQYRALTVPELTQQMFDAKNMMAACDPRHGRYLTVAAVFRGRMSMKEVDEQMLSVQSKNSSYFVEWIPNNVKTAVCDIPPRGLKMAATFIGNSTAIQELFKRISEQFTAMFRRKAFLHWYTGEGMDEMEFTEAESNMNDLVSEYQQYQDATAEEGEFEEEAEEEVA
UniProt O94906: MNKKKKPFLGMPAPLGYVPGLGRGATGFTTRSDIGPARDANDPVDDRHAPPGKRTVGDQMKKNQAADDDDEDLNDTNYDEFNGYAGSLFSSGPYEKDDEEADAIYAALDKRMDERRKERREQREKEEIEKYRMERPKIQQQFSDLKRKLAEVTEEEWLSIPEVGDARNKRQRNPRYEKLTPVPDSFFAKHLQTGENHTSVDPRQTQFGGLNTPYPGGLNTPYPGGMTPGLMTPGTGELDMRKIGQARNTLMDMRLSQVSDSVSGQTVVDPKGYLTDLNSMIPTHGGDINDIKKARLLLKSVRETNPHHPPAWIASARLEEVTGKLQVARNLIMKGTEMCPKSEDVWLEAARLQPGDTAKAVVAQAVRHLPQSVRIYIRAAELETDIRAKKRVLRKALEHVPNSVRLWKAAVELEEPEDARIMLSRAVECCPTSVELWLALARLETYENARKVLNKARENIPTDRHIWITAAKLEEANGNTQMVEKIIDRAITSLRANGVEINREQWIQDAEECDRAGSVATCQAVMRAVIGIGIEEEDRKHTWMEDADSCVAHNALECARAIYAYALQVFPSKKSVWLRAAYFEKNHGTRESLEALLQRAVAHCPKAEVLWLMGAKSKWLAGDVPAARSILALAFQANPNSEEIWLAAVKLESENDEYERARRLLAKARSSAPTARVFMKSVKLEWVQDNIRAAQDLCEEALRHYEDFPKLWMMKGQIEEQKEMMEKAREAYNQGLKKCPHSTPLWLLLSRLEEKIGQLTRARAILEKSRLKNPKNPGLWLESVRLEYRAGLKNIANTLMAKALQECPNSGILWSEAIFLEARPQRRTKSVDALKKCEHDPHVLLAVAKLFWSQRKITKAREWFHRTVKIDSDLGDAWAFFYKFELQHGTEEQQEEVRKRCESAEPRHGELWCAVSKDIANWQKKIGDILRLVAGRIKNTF
UniProt O95999: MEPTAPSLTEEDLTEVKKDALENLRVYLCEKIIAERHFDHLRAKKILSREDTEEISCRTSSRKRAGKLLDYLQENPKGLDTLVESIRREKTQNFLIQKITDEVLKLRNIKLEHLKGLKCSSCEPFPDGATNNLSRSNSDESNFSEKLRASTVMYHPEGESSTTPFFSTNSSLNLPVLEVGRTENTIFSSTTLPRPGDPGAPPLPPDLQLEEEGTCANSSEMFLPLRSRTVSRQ
UniProt P04040: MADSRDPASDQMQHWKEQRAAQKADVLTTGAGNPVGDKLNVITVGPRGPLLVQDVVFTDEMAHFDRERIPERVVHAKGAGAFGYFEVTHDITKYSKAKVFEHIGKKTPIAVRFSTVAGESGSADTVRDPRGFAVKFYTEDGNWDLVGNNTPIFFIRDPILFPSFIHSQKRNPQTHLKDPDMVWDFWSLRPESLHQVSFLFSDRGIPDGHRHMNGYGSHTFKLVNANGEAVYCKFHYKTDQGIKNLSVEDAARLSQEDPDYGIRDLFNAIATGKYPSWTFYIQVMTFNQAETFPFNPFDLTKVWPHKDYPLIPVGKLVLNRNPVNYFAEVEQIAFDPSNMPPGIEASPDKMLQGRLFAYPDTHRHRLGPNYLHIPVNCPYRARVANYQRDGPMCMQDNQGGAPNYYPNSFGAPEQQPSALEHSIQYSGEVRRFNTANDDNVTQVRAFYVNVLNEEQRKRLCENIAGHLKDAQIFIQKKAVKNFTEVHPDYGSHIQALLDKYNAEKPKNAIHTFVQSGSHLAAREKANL
UniProt O94832: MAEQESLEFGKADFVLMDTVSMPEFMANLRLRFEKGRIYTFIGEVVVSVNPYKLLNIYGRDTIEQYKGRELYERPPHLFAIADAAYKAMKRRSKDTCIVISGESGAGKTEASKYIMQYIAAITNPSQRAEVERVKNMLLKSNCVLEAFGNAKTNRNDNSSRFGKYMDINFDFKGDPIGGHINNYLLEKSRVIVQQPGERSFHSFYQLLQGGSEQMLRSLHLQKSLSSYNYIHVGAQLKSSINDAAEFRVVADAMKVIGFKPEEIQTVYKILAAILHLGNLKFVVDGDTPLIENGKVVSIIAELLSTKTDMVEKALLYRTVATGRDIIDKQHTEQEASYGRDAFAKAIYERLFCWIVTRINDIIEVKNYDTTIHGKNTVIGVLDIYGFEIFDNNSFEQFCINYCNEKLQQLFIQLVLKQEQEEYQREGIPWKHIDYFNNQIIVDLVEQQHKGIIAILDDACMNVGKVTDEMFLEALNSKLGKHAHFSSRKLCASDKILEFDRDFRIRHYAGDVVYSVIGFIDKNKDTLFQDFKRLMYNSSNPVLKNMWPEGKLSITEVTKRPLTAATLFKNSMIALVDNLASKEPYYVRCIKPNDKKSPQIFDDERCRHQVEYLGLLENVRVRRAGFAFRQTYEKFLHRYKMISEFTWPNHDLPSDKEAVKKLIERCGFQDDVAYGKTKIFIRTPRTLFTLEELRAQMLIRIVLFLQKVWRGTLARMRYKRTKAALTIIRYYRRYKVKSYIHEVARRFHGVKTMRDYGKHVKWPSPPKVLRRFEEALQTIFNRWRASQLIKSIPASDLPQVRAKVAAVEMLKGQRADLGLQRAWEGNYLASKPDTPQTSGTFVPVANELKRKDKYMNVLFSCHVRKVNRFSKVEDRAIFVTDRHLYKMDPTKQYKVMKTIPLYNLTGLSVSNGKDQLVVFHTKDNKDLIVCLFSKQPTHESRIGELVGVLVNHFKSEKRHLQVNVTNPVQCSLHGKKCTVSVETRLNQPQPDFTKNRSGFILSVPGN
UniProt P00568: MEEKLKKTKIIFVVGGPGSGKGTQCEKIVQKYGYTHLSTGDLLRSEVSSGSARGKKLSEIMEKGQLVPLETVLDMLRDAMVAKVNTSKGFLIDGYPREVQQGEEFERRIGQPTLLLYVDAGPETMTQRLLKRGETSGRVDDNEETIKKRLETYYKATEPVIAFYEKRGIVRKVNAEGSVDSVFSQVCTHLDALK
UniProt P04818: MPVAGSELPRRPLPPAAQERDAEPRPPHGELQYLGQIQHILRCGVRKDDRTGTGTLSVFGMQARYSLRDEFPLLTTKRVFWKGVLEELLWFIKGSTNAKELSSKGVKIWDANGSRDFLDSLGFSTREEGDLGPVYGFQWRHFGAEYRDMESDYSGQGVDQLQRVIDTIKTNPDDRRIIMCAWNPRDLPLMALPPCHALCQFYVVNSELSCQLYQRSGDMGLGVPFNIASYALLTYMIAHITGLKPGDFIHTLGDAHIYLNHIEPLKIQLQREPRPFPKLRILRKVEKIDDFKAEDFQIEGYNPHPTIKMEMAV
UniProt O95104: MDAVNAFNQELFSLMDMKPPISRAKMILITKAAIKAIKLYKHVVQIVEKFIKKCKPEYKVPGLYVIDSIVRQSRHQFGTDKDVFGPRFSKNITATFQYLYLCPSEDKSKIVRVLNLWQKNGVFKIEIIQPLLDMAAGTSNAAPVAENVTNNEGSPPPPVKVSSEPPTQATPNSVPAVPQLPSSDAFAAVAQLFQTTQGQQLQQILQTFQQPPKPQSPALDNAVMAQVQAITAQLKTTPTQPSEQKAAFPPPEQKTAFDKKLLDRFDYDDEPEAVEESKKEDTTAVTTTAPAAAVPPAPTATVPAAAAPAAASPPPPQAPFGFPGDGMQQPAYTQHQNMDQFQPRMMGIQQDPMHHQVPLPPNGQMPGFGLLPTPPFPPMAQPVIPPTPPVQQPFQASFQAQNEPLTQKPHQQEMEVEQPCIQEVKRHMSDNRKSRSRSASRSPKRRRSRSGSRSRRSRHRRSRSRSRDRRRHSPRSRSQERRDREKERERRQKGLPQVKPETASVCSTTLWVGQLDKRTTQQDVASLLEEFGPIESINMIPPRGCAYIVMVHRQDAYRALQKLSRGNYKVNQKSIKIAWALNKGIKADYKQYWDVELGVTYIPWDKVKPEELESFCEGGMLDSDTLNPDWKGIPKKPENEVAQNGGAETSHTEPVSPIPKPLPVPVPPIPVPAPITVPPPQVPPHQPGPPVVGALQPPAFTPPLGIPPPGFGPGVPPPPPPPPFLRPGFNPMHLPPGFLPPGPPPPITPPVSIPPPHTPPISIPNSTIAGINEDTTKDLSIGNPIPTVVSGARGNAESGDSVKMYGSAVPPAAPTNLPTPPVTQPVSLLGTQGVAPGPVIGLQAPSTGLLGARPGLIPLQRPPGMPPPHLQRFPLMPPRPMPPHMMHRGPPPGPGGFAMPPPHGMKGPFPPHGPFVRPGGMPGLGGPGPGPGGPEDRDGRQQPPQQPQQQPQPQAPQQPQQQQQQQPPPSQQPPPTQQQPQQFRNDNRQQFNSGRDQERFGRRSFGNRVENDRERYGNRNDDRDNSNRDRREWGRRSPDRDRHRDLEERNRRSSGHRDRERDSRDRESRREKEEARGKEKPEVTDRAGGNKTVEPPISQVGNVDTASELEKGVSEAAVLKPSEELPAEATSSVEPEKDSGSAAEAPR
UniProt O95453: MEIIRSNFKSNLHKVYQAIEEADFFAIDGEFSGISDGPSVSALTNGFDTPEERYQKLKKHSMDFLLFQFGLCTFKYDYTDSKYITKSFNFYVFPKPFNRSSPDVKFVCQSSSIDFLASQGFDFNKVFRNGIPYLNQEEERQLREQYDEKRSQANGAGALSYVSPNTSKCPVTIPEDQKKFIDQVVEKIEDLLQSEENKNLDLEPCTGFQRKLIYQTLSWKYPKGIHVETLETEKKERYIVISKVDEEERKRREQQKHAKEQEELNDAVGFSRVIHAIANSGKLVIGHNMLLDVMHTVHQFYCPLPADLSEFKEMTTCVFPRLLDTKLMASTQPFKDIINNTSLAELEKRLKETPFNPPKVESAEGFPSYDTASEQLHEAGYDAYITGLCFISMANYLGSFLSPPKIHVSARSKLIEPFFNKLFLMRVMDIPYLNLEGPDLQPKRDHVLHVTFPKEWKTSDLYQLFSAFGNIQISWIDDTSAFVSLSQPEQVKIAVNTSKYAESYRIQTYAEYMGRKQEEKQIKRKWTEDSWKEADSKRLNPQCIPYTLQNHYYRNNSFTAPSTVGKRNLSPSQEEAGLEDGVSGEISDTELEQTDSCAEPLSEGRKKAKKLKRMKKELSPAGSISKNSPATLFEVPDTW
UniProt O95835: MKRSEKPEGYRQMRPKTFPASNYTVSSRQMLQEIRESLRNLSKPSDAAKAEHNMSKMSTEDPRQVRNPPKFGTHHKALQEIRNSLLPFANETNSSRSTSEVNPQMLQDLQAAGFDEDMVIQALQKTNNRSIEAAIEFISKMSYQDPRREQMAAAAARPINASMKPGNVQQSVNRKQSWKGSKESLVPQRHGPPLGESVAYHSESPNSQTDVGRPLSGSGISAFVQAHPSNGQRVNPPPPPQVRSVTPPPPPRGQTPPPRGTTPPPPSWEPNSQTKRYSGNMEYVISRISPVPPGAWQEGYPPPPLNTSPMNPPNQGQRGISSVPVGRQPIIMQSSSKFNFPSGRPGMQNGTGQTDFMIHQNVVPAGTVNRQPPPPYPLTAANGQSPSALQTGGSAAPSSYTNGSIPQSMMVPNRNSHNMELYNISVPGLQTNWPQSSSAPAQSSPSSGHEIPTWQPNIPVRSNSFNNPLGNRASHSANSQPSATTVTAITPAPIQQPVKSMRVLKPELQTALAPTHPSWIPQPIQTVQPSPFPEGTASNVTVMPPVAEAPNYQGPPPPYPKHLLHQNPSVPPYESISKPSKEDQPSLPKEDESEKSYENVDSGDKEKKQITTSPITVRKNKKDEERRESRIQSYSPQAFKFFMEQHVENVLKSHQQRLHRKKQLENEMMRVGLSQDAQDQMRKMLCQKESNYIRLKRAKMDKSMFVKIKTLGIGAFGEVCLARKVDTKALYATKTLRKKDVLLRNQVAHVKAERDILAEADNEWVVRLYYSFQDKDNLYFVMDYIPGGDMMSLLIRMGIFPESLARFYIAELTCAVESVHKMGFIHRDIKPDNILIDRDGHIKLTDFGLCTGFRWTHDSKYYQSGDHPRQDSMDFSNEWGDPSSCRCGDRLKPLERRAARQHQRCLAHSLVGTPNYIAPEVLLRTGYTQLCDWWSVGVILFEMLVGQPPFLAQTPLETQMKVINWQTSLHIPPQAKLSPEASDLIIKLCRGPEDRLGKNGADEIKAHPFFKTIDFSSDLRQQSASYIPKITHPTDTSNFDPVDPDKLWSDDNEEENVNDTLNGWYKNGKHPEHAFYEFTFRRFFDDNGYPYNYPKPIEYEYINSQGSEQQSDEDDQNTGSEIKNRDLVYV

Row | Target | log2 ratio of iodoacetamide-alkyne labeling
1 | UniProt P04350_C12 | inactive: 0.496
2 | PRPF6 C698 (UniProt O94906) | inactive: 0.0824
3 | HERC2 C2726 (UniProt O95714) | inactive: -0.00741
4 | HERC2 C1201 (UniProt O95714) | inactive: 0.186
5 | ALDOA C339 (UniProt P04075) | inactive: -0.0262
6 | AIFM1 C441 (UniProt O95831) | inactive: 0.0687
7 | CPSF4 C110 (UniProt O95639) | inactive: -0.138
8 | PGM3 C200 (UniProt O95394) | inactive: 0.18
9 | BCL10 C122 (UniProt O95999) | inactive: 0.992
10 | UniProt O95382_C16 | inactive: 0.407
11 | ATG7 C524 (UniProt O95352) | inactive: 0.318
12 | CAT C377 (UniProt P04040) | inactive: 0.023
13 | GLUD1 C376 (UniProt P00367) | inactive: 0.385
14 | MYO1D C143 (UniProt O94832) | inactive: 0.254
15 | AK1 C187 (UniProt P00568) | inactive: 0.0768
16 | EPRS C1480 (UniProt P07814) | inactive: 0.449
17 | UBXN7 C478 (UniProt O94888) | inactive: -0.172
18 | KRT1 C49 (UniProt P04264) | inactive: -0.0854
19 | TYMS C180 (UniProt P04818) | inactive: -0.0703

Row | Target | log2 ratio of iodoacetamide-alkyne labeling
20 | NFAT5 C217 (UniProt O94916) | inactive: 0.493
21 | KBTBD11 C257 (UniProt O94819) | inactive: -0.112
22 | IPO7 C415 (UniProt O95373) | inactive: -0.0165
23 | UniProt O95104_C102 | inactive: -0.0481
24 | SEC24D C824 (UniProt O94855) | inactive: 0.304
25 | PGM3 C93 (UniProt O95394) | inactive: 0.156
26 | HEXB C551 (UniProt P07686) | inactive: 0.749
27 | LDHA C163 (UniProt P00338) | inactive: 0.164
28 | ENO1 C389 (UniProt P06733) | inactive: 0.125
29 | UROD C35 (UniProt P06132) | inactive: 0.238
30 | NR3C1 C481 (UniProt P04150) | inactive: 0.314
31 | SASH1 C822 (UniProt O94885) | inactive: 0.662
32 | PARN C169 (UniProt O95453) | inactive: 0.901
33 | UniProt P04439_C227 | inactive: 0.255
34 | GAPDH C156 (UniProt P04406) | inactive: -0.0924
35 | ZRANB2 C85 (UniProt O95218) | inactive: 0.263
36 | LATS1 C885 (UniProt O95835) | inactive: 0.423
37 | GPX1 C156 (UniProt P07203) | inactive: 0.0378
38 | PRKD3 C29 (UniProt O94806) | inactive: 0.121

Taken from the listing (two entries):
Row | Target | log2 ratio of iodoacetamide-alkyne labeling
20 | NFAT5 C217 (UniProt O94916) | inactive: 0.493
21 | KBTBD11 C257 (UniProt O94819) | inactive: -0.112

Source: the supplement of paper PMC11006884
